Assay results as given in doi:10.1101/2024.07.29.605622.

Amino acid sequences for entries named in this document (tags omitted).
UniProt P51784: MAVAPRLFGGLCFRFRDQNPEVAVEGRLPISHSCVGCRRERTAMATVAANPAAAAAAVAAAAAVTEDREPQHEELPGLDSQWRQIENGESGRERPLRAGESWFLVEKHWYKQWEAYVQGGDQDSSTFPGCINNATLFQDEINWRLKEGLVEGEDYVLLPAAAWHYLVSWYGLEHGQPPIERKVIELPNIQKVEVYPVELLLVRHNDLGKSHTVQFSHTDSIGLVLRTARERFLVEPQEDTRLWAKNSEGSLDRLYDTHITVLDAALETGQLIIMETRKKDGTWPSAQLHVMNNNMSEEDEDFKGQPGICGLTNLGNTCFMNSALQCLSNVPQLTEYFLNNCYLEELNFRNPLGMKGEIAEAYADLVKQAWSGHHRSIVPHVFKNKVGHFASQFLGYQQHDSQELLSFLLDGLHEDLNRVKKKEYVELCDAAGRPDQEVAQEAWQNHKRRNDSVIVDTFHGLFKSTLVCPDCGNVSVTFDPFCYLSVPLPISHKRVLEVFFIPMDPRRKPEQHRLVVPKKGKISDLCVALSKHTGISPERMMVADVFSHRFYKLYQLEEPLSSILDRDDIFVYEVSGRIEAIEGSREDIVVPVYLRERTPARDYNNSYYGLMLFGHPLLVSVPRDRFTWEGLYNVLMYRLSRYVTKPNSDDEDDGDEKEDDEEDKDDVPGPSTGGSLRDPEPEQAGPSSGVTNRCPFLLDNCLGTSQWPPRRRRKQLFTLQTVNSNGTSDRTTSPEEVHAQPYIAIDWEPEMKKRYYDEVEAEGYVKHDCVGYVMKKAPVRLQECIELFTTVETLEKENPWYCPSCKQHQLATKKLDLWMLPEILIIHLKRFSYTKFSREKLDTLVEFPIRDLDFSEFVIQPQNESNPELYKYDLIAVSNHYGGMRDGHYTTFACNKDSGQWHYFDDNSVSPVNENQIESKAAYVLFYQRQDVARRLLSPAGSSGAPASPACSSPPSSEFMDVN
UniProt Q93009: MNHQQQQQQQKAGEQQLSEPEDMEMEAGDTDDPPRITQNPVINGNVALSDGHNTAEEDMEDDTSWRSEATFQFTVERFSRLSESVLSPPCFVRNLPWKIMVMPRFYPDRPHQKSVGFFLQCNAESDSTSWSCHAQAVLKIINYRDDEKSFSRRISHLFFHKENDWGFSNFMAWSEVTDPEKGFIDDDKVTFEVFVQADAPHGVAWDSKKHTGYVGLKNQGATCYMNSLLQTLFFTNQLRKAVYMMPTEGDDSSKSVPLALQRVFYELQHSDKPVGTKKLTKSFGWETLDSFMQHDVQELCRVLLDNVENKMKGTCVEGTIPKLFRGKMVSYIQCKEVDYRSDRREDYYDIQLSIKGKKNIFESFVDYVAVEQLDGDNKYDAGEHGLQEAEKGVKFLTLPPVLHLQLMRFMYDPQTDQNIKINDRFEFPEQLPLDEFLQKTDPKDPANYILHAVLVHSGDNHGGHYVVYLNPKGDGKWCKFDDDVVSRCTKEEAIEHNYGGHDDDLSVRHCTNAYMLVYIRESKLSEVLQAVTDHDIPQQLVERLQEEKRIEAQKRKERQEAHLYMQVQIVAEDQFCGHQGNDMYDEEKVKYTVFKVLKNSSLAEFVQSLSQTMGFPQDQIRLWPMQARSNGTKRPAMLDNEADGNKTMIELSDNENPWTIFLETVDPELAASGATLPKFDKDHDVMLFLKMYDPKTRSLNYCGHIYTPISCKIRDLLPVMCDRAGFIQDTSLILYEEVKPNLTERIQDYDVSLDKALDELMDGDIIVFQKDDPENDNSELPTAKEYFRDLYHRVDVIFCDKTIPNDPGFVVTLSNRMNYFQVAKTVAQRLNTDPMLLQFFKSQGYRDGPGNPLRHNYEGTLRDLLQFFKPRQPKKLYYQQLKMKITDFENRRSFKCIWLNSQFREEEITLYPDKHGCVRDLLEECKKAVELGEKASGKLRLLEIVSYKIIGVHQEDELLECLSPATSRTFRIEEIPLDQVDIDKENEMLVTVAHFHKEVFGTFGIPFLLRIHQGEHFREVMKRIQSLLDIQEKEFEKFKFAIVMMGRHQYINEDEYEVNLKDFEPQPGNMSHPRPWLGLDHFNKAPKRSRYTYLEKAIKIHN

What was measured:
[1] = molecular target: HA-tagged USP11, HA at the amino-terminus (human) (UniProt P51784); assay: affinity purification with mass spectrometry
[2] = molecular target: HA-tagged USP11, HA at the carboxy-terminus (human) (UniProt P51784); assay: affinity purification with mass spectrometry

- binding [1]: binds
- binding [2]: binds
Substance: USP7 (endogenous) (from UniProt Q93009 1-1102) (enzyme)

These are yes or no findings as the source states them, for the method shown. Binding seen in cells or lysates may run through a third protein. These calls come from enrichment with a bait or labelling near it, and not all partners need be listed.
